This is one part of the list.
Target: T1, OsSMF1 (Oryza sativa, UniProt Q6ZLB0 1-436)
T1 sequence: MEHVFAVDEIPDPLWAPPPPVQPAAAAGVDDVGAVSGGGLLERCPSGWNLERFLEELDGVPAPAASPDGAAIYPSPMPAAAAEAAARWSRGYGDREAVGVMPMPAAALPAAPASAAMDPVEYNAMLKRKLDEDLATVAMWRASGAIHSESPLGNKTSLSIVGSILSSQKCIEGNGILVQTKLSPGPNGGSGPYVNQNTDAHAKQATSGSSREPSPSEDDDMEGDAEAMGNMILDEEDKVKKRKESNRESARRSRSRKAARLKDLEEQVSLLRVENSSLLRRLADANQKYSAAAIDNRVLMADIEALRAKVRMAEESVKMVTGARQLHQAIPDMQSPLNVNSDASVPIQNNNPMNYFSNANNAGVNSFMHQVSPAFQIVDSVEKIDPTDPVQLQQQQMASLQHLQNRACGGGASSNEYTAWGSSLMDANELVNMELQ
Assay: protein-binding microarray (RPBM); PBS, 2% BSA, 51.3 ng/ul salmon testes DNA, 50 uM zinc acetate, 200 nM TF, 25 C, 1 h; high values mean tight binding
Conditions: protein: recombinant; tags: N-terminal polyhistidine and DsRed monomer fusion (pET32a); chain copies: 2; label: CyDye5-dUTP incorporated in the synthesized complementary strand; 3' TTTTT single-stranded linker to array surface; dsDNA, one strand shown
Method in brief: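 Binding signal here means per-feature fluorescence intensity in arbitrary units. The values were read on an Axon 4000B scanner after a custom Agilent array, double-stranded by primer extension with Cy5-dUTP, was incubated with 200 nM protein at 25 °C for 1 h in PBS with 2% BSA, salmon testes DNA and 50 µM zinc acetate, then washed. The proteins were transcription factors with an N-terminal polyhistidine tag and DsRed, expressed in E. coli BL21-CodonPlus and purified on Ni–NTA.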

Sequence | binding signal
CGGCGGCGGCGTCATGTCCTTTGCAATCAGCGGACAGTGGCGGAGTCACCTAGTGCAG | 3610 fluorescence intensity (a.u.)
GGACAGGCTGATGTCACCGCCGCCGCCGCCGCCGAGCAAGCGGAGTCACCTAGTGCAG | 7850 fluorescence intensity (a.u.)
ACCGTAGCCCACCTGTCAGTGACACAGCCCCACTCCCACCCGGAGTCACCTAGTGCAG | 6310 fluorescence intensity (a.u.)
GGAGGCCGGAGCAGTTGGTCGCCACCGTCACGCGCGTTCCCGGAGTCACCTAGTGCAG | 4240 fluorescence intensity (a.u.)
AAATTAACCCTTCACACACGTAAAATGAAGTAATGGATTACGGAGTCACCTAGTGCAG | 3680 fluorescence intensity (a.u.)
CATCCACAGCCACATCCACATCCACCGAGCAGGAATCCAACGGAGTCACCTAGTGCAG | 3700 fluorescence intensity (a.u.)
GGAAGGAGAGGGGAAGGGAGGAGCAGGTGGCGACGGTGCGCGGAGTCACCTAGTGCAG | 3910 fluorescence intensity (a.u.)
TGTACGAGTTGGATTTTAAGTTCGTTTGCTTTTGAAAATACGGAGTCACCTAGTGCAG | 3390 fluorescence intensity (a.u.)
TCCCGCTGTTTAGCACTAAGCACCAAACGAAACCCAAGAACGGAGTCACCTAGTGCAG | 28500 fluorescence intensity (a.u.)
AATGAGTGTGTCCGCCCCTGGCCTGACACGATGGGTAATTCGGAGTCACCTAGTGCAG | 3500 fluorescence intensity (a.u.)
CCATCAACGCCCTCTCCGTCCTCCTCGCCGCCGCCATCGCCGGAGTCACCTAGTGCAG | 4300 fluorescence intensity (a.u.)
CGCACCGGGTCCAGTAGACCGCAAAACCCACACCCCATCGCGGAGTCACCTAGTGCAG | 5980 fluorescence intensity (a.u.)
TTCTCATTTTATTTAATTTAAAAGTAATTTATTACATGTTCGGAGTCACCTAGTGCAG | 19000 fluorescence intensity (a.u.)
AGGGGATCACAGACTCACAGTGACGTGCTCCTGATGCAAACGGAGTCACCTAGTGCAG | 4050 fluorescence intensity (a.u.)
GTCGTGTCGGCTGCCGATTACACTATCGGCAGTGCAGCCGCGGAGTCACCTAGTGCAG | 4270 fluorescence intensity (a.u.)
ATAGTATGATACAATATGACGTCACAACAAATTGGCATTGCGGAGTCACCTAGTGCAG | 16900 fluorescence intensity (a.u.)
CGTCCGTGAGCACTGCGGCGAGCATCACCAGGATGAGGCCCGGAGTCACCTAGTGCAG | 4480 fluorescence intensity (a.u.)
GGTGGTTTGACTTACCTGTCATGCCGCCGTTTTGGCCATTCGGAGTCACCTAGTGCAG | 4170 fluorescence intensity (a.u.)
GGTTTAGGCTGCTCCACAACTCTACTTCAAAACTCAACTCCGGAGTCACCTAGTGCAG | 24700 fluorescence intensity (a.u.)
AGTCAATTCGGTCACCAAGACACGTGTACTACGCGCCGCACGGAGTCACCTAGTGCAG | 8870 fluorescence intensity (a.u.)
ATGTGGATATGTCACGTCATCCTCACATGATCCCCATTATCGGAGTCACCTAGTGCAG | 14900 fluorescence intensity (a.u.)

Sequence | binding signal
TGGCCCAACACATCAACGTTACATCACGGGCTTTAACGTTCGGAGTCACCTAGTGCAG | 3290 fluorescence intensity (a.u.)
TAAACCATAATCACATTGGGCAAAACGCATAGTCGAGTCACGGAGTCACCTAGTGCAG | 4540 fluorescence intensity (a.u.)
TCGTTTTGCCACCGTGTATTCTACTCAACTCTCTACTGCTCGGAGTCACCTAGTGCAG | 5200 fluorescence intensity (a.u.)
CCGCTTCACCTGGTCGATGACGTACCACACCTTGAGCCTGCGGAGTCACCTAGTGCAG | 5710 fluorescence intensity (a.u.)
TTTATCTTCTATATTATATTGAAATCCAAATCATCCAGTTCGGAGTCACCTAGTGCAG | 3220 fluorescence intensity (a.u.)
CAGGGTGGCAGGAGAGGTAGGGGCTTGCTATGGCAGTCAGCGGAGTCACCTAGTGCAG | 3250 fluorescence intensity (a.u.)
ACACTAACTGCCGAGATGTCGATCCCAATTCCACGTGTGGCGGAGTCACCTAGTGCAG | 8710 fluorescence intensity (a.u.)
CCGCTACCATCCACGTCAGCACGACGCCATCCATAATCGGCGGAGTCACCTAGTGCAG | 22900 fluorescence intensity (a.u.)
ATCCCGTAGATCTCGTCATCTACACCACGCTATTCGTATCCGGAGTCACCTAGTGCAG | 4110 fluorescence intensity (a.u.)
TCGCCGGCGGCCCGTCAGGCCGAAAGCGCCACGTGGGCGGCGGAGTCACCTAGTGCAG | 6460 fluorescence intensity (a.u.)
TTACCGGGCGTTGCTGAGAGGATGTATCAACTCTAGCAATCGGAGTCACCTAGTGCAG | 11200 fluorescence intensity (a.u.)
GCGGTTTATATATACATACACACACACATAATCCGTGCTGCGGAGTCACCTAGTGCAG | 3270 fluorescence intensity (a.u.)
CGCTCTGCCGTCCGGCTCTCCGCGCGATGCTACGTGGCCGCGGAGTCACCTAGTGCAG | 5480 fluorescence intensity (a.u.)
CTTGGTGGTCAGAGTGACAAACATTCTATATCCTTTGTCTCGGAGTCACCTAGTGCAG | 36600 fluorescence intensity (a.u.)
TTATTAGCAACCGATAAGTGTTTCATCAGCAATTATATATCGGAGTCACCTAGTGCAG | 3480 fluorescence intensity (a.u.)
AACAGAAGAGCCCACCTAGTCCACCTTGTTTCTTTCTCTCCGGAGTCACCTAGTGCAG | 4180 fluorescence intensity (a.u.)
TGAATGGATAGACGATCGAGTAGATGACACGTACGGCTGCCGGAGTCACCTAGTGCAG | 5360 fluorescence intensity (a.u.)
ACTGGTTTCGTAAGTTGGGAGACCCGTCATACCTGGTTTTCGGAGTCACCTAGTGCAG | 4250 fluorescence intensity (a.u.)
AGTTAGATCCGTGTCACATTTCATGTTTTGTCCTCATTCTCGGAGTCACCTAGTGCAG | 3460 fluorescence intensity (a.u.)
TAGCTAGCTTGCGAGTGACACGTCACCCACACGCACGCACCGGAGTCACCTAGTGCAG | 24000 fluorescence intensity (a.u.)
ATATAGCATGTCAAGATATTTGGGTGATATGTACTATGTACGGAGTCACCTAGTGCAG | 4580 fluorescence intensity (a.u.)

A few values from the list.
For binding signal, TTTATCTTCTATATTATATTGAAATCCAAATCATCCAGTTCGGAGTCACCTAGTGCAG is entered as 3220 fluorescence intensity (a.u.)
For binding signal, CCGCTACCATCCACGTCAGCACGACGCCATCCATAATCGGCGGAGTCACCTAGTGCAG is entered as 22900 fluorescence intensity (a.u.)
For binding signal, ATCCCGTAGATCTCGTCATCTACACCACGCTATTCGTATCCGGAGTCACCTAGTGCAG is entered as 4110 fluorescence intensity (a.u.)
For binding signal, CGCTCTGCCGTCCGGCTCTCCGCGCGATGCTACGTGGCCGCGGAGTCACCTAGTGCAG is entered as 5480 fluorescence intensity (a.u.)

— article PMC7819943, “Rice protein-binding microarrays: a tool to detect cis-acting elements near promoter regions in rice”
